# Source: PubChem BioAssay AID1508600 (Functional Genomics Laboratory (NCATS/FGL), 2020)
# About 3,700 (7%) of roughly 53,000 sequences were called active.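 How the source made its calls: active means gene knockdowns whose robust z-score for IL-1 alpha signal is at least 2 or at most -2, so actives lie on both sides; inactive means the rest.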 This is one part of the list.
# Experiment: Components of the Cytosolic LPS Sensing Pathway: Gene Identification via Genome-wide siRNA Screen;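 further: robust z of the log signal after scaling to non-targeting control siRNA wells of the plate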
# Details: RAW264.7 macrophages, IL-1a HTRF, actives lie on both sides, screened at 100 nM (by protocol), cells primed 5 h with Pam3CSK4 first
# Summary of the method: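 RAW264.7 mouse macrophages reverse-transfected with single siRNAs (100 nM final) for 48h, primed with Pam3CSK4 for 5 hours, then transfected with LipidA for 24 hour. Supernatant IL-1a read by HTRF; values normalized to negative-control median, log-transformed robust z-scores.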
row,Sequence,z-score
1,GGAGAAAGCAGAGACAAUGTT against Tnfrsf13c,inactive: -0.546
2,GGUUCCAUCUGUCCUACUUTT against Actr10,inactive: 0.000211
3,CCACACAAUGGCCAAGUAGTT against Ppp1r16a,inactive: -0.282
4,GGCAGAGAUGCUUUAUAAATT against Hars2,inactive: -0.485
5,GCCCAACAGCUACACCUUATT against Clec2e,inactive: -0.508
6,CCUGUCUUUGAACGAUGUGTT against Olfr1279,inactive: -0.633
7,GCUUAACUGCCAUUCUGAATT against Fn3krp,inactive: -0.642
8,GGAAAACCAGAUAAAGAAATT against Cog1,inactive: 0.676
9,GGAUGUACUUGACACCCAGTT against Cyfip1,inactive: -0.118
10,CCUAUUACAAUGUACGUGUTT against Ssh3,inactive: 0.491
11,GCUUAUGAUGAACAAGCCCTT against Clec4b2,inactive: -0.632
12,GCCAUACUACAUCACAGAGTT against S100a7a,inactive: 0.77
13,GGCCUAGCAAUUCUUGAGCTT against Gm5087,inactive: -0.18
14,GGAGUGAUGUCUUCACUGATT against Snx31,inactive: -1.12
15,GGCUUUAUGACAUCAUUUGTT against Rab5if,inactive: 1.86
16,CGAAACCUGUUCUUCUGCCTT against Serpinb8,inactive: 0.852
17,GGAAUAAGAUCUGGUAUGATT against Idh2,inactive: 0.288
18,GCUCUAUAUCUCCUUAGCCTT against Olfr450,inactive: -0.64
19,GGCUGAUCAUCCAGUCCAATT against Jund,inactive: -0.975
20,CGUGGUUCCUCUUUGGUGUTT against Kcnj10,inactive: -0.217
21,GGGCUGAAGUUUUAUACCATT against Wasf1,inactive: -0.83
22,CCAAGAACCUUCGUCUGCUTT against Apobec2,inactive: 0.91

row,Sequence,z-score
1,GGCUCACAGGACCUAUUUCTT against Col6a6,active: -3.15
2,GGUGUAUGGACAAGGAGUUTT against Pgpep1,inactive: -0.79
3,CGAGAAAAGAGGUUGGCUGTT against 6330444E15Rik,inactive: -0.366
4,GGAUCCUGAACGAAAAAGGTT against Med19,inactive: -0.0986
5,GGAGGACCUUCAGAAACUCTT against Gdap2,inactive: 1.14
6,GGUAGAAAUUUACCUCAUUTT against Dusp4,inactive: -1.42
7,CCUGGCUAUUGGUGAGUGATT against Slc30a3,inactive: 1.9
8,GGAACUCACGCUGAGUUCCTT against Lrrtm1,inactive: -0.269
9,GGAAUACUGGUCUUGCUGUTT against Tspan17,inactive: -1.73
10,GGACUUGUGCAUUAAGUACTT against Fbxw11,inactive: -0.768
11,GGUUUCCAUGUUCUUCCGATT against Pxk,inactive: 0.37
12,GCAGUUAAAGCAAGCCUCUTT against Tas2r107,inactive: 0.401
13,GGUGGACAUGAGAAAGUGUTT against Prorsd1,inactive: -0.0626
14,GGCUUGUAUGACAAUAAACTT against Vipr1,inactive: -0.555
15,CCCUGGUCCAUCUCUAGUGTT against Fblim1,inactive: 0.14
16,GGAAUUUGAAGCUCUUAUGTT against Add1,inactive: 1.44
17,GGAAUACAUCAUCCAGGUGTT against Cntfr,inactive: 0.156
18,GGAGAAACUGGACAACCUGTT against Eno2,active: 4.12
19,GGCUACUAUACUGUUGAAGTT against Ceacam18,inactive: 0.823
20,GCAGAUUGGUUAAGUAUUCTT against Rttn,inactive: 0.583
21,GGAGCAUCACAGAUAUCUATT against Ccr8,inactive: -0.113
22,GGUCAUAGCAUCUACGGCUTT against Gm4793,inactive: -0.11

row,Sequence,z-score
1,GGCUUCCCGGAGUAACAAUTT against Dlgap1,inactive: -0.742
2,GGCAAGAAAGAAGUGGAACTT against Msl3l2,inactive: 0.747
3,GGCCUAUGGCUUCAUUAGCTT against Golt1a,inactive: 0.197
4,CCCUCUUUAUCGUCUGUGATT against Gpha2,active: -2.89
5,GGCAGUUUCUGUGCUAUACTT against Olfr984,active: -2.49
6,GGUCUGGUAUGAGGAGAACTT against Prodh2,inactive: -0.205
7,GCAUGGUAUCAGGUACAUATT against Med9,active: 2.2
8,GGAUUUUGGCCAAAUUGGUTT against Slc25a30,active: -2.08
9,GCGGCCGACUUUGUGAAAGTT against Pno1,inactive: 0.124
10,GCUUUCUGAAUCCCAAGAGTT against Sh3bgr,inactive: -0.251
11,GGAAAUGAUACCUUACCACTT against Zfp715,inactive: 0.162
12,GGAGGUGGAACAAAUAUUUTT against Emc6,inactive: 0.361
13,GCAACACAUUUGAACCACUTT against Usp15,inactive: -1.79
14,GGAUUCGUCUAGGCUCGUATT against Rap2a,inactive: -0.427
15,GGAGCAAAUGAUUUCAUGUTT against Tcp1,inactive: -1.51
16,GGUAACCAAAACAAUUCUGTT against Cog8,inactive: -0.00241
17,CCGAGUGUAAUUUCCUAAATT against Pcdhgb5,inactive: 0.619
18,CCACAUCAAGCAGAAAGUCTT against Gm5800,inactive: -0.306
19,GGAUCUUCGGAAGACAUGUTT against Ppp1r3a,inactive: -0.633
20,GGAAGCAUCGAUCAAUCUATT against Homer2,inactive: 0.234
21,GGUCUAGAGCAAUUCCAUATT against Olfr656,inactive: 1.51
22,GGCCUGGAAGUAGCAUUGUTT against Mrpl17,inactive: 0.545

row,Sequence,z-score
1,GGGACUUGUUGGAUGAAACTT against Gml2,inactive: -0.0216
2,GGUUUUUGGUGUGUUUCUCTT against Ppp1r12c,inactive: 0.207
3,GGACUUUGUGAGGCUCUUCTT against Lsm2,inactive: -1.25
4,GCAGUACAAGCCAUCUGUUTT against Olfm4,inactive: -0.0809
5,GCAUGAUAUCAGUGGCAAGTT against Itga11,active: -2.41
6,GGAGAAGCUGAAAGGUUAUTT against Ifrd2,inactive: -0.647
7,CCUAUCGACACUGCCGAAATT against B3gnt4,inactive: -0.0411
8,GGUAGAUGAAGUCCUUUAUTT against Mthfs,inactive: 0.996
9,GGAUCAUUCUGUGAACAAGTT against Ly6h,inactive: 1.52
10,GGAUGAUUGCCAAAGCAGATT against Eps8,inactive: -0.956
11,GGAUGCAGAAGAUUUUGUGTT against Ptprcap,inactive: -0.704
12,GCACUAAGUUUUGGAUUAATT against Mapkap1,inactive: 0.369
13,GGAUCAAAGACGAAUUCCATT against Tle3,inactive: -1.97
14,GGAAGUUUUGGCUUAGGCATT against Tmco5b,inactive: 1.58
15,GCACUUUGAAUAUUGAUCGTT against Hipk3,inactive: -0.95
16,GGUCAGAGCAUUGUGAACATT against Abcb10,inactive: 0.443
17,GGUCUGAGCAUUCUCAGCATT against Mrgprb2,inactive: -1.34
18,CCACUGAAGGAAGUUCGCUTT against Amer2,inactive: 0.21
19,GGAGUUUUUAAAUGUUCUCTT against Syt1,inactive: 1.07
20,GGAACUGCCAUUGUAUGGGTT against Myo1g,inactive: -0.568
21,GGGACUUCAGGGAUUGAUUTT against Atp6v1b1,inactive: 0.969
22,GCUAGAUCCAUCCAUAUAGTT against Misp,inactive: -1.26

row,Sequence,z-score
1,GGAUGACACACACUAUUAUTT against Plek2,inactive: 1.47
2,GGCCUUGAAUUUCUCCUAUTT against Dgcr8,inactive: -1.09
3,CGCGGCAUAAACAUGUAAATT against Gatc,inactive: -1.07
4,GGGUGAUGAGAUCUGUCUGTT against Upf1,inactive: -0.378
5,GGAGAGUAGAUUCUCCAUUTT against Zfp692,inactive: 0.332
6,GGUAACAUCUCCAUCAGCCTT against Nxph3,inactive: 0.34
7,CCAGUCUUGCCCUUUAGUGTT against Foxi2,inactive: -1.88
8,GGACCUGAAUCCUCCCAAATT against Sh3pxd2b,inactive: -0.473
9,GGCUGCAUUACCCAGCUUATT against Olfr853,inactive: 0.719
10,GCCCAAGACGACAUGAACUTT against Marchf6,inactive: 0.602
11,GGCUCAGAGUUAUUUUUGCTT against Natd1,inactive: -1.64
12,GCAUCCUACUUCUCAACUUTT against Ceacam12,inactive: 0.328
13,CGCGGUUGGUUUAUACAUATT against Sppl3,inactive: 0.334
14,GGAGAGCUGCAUCAAAAAGTT against Prdm16,inactive: 0.545
15,CCAUUAAGAUCCGAAGUAUTT against Lrrc58,inactive: -0.36
16,GCCCUACUAAGUCAAUUAATT against 1700055D18Rik,inactive: 0.248
17,CGGCAGAGAUUAUAUCAUCTT against Syn3,inactive: 1.06
18,GCAUACCUAUUCACGUACGTT against Slc7a4,inactive: -0.475

# Shown with tabs: entries from further up
row	Sequence	z-score
8	GGAAAACCAGAUAAAGAAATT against Cog1	inactive: 0.676
13	GGCCUAGCAAUUCUUGAGCTT against Gm5087	inactive: -0.18
21	GGGCUGAAGUUUUAUACCATT against Wasf1	inactive: -0.83
2	GGUGUAUGGACAAGGAGUUTT against Pgpep1	inactive: -0.79
3	CGAGAAAAGAGGUUGGCUGTT against 6330444E15Rik	inactive: -0.366
5	GGAGGACCUUCAGAAACUCTT against Gdap2	inactive: 1.14
14	GGCUUGUAUGACAAUAAACTT against Vipr1	inactive: -0.555
16	GGAAUUUGAAGCUCUUAUGTT against Add1	inactive: 1.44
17	GGAAUACAUCAUCCAGGUGTT against Cntfr	inactive: 0.156
20	GCAGAUUGGUUAAGUAUUCTT against Rttn	inactive: 0.583
21	GGAGCAUCACAGAUAUCUATT against Ccr8	inactive: -0.113
2	GGCAAGAAAGAAGUGGAACTT against Msl3l2	inactive: 0.747
4	CCCUCUUUAUCGUCUGUGATT against Gpha2	active: -2.89
21	GGUCUAGAGCAAUUCCAUATT against Olfr656	inactive: 1.51
22	GGCCUGGAAGUAGCAUUGUTT against Mrpl17	inactive: 0.545
15	GCACUUUGAAUAUUGAUCGTT against Hipk3	inactive: -0.95
2	GGCCUUGAAUUUCUCCUAUTT against Dgcr8	inactive: -1.09
5	GGAGAGUAGAUUCUCCAUUTT against Zfp692	inactive: 0.332
12	GCAUCCUACUUCUCAACUUTT against Ceacam12	inactive: 0.328
13	CGCGGUUGGUUUAUACAUATT against Sppl3	inactive: 0.334
14	GGAGAGCUGCAUCAAAAAGTT against Prdm16	inactive: 0.545
